PubChem BioAssay AID2685 (National Center for Advancing Translational Sciences (NCATS), 2010)
The other results are listed elsewhere or left out. Shown are side measurements of this screen, not its main read-out; they come without a call. Most of these compounds were active or inconclusive in the main read-out, so they are no random draw. Words in brackets tell the shape of the fitted curve; partial curves, single points and poor fits give uncertain potencies.

Assay: qHTS Assay for Lipid Storage Modulators in Drosophila S3 Cells;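 on cell number change: cells counted by Cell Tracker Red CMTPX staining in the red channel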
Conditions: BODIPY lipid droplet fluorescence, 18-24 h; for cell number change: measured here: cell count max response, cells fed with added oleic acid
Method in brief: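 Drosophila S3 cells got compounds at several concentrations plus oleic acid (400 uM solution). Laser-scanning cytometry with 488 nm excitation read lipid droplets at 500-530 nm and cells at 575-640 nm. Percent activity was relative to 20 uM Triacsin C.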

[1] = measured here: lipid fluorescence (Fed channel) AC50, cells fed with added oleic acid
[2] = measured here: cell number channel AC50, cells fed with added oleic acid

Compound | AC50 [1] | cell number change [%] | AC50 [2]
Cc1cccc(N2CCN(C(=O)C3CCN(S(=O)(=O)c4c(C)noc4C)CC3)CC2)c1C | 29.1 µM [rising, single point] | – | –
O=C(O)Cc1ccc(NC(=O)c2ccc(NC(=O)C3CC3)cc2)cc1 | – | -5.44 | –
Cc1cc2oc(=O)cc(CN3CCc4ccccc43)c2cc1Cl | 0.82 µM [rising, partial curve] | 13.9 | –
CS(=O)(=O)N1CCC(C(=O)Nc2cccc([N+](=O)[O-])c2)CC1 | 0.1 µM [falling, full curve, poor fit] | -4.87 | –
O=C1CCCN1CCC1CCN(C2CC(=O)N(c3ccc(Cl)cc3)C2=O)CC1 (stereo unspecified) | 0.58 µM [falling, single point] | -38.4 | 29.1 µM [falling, single point]
O=C(CSc1nnc(NC(=O)C2CC(=O)N(c3ccccc3)C2)s1)NC1CCCC1 (stereo unspecified) | – | 3 | –
Clc1ccc2nc(CSCc3ccccc3)cn2c1 | 29.1 µM [rising, single point] | 47.8 | 0.651 µM [rising, full curve]
O=C(NC(=S)Nc1ccc(N2CCCC2)cc1)c1ccc(F)cc1 | – | -6.47 | –
O=C(Cn1nnc(-c2cccs2)n1)Nc1ccccc1C(F)(F)F | – | 42.5 | –
Cc1nnc(N/N=C/c2ccc(-c3ccccc3F)o2)n1N | 14.6 µM [falling, partial curve] | -12.5 | –
Cc1ccc(F)cc1NC(=O)N1CCN(c2ccnc3cc(Cl)ccc23)CC1 | 0.366 µM [rising, full curve] | 25 | –
COc1ccccc1N(C)S(=O)(=O)c1ccc(C(=O)Nc2nc(C)cs2)cc1 | 29.1 µM [falling, single point] | -62.1 | 29.1 µM [falling, single point]
COc1ccccc1OCC(=O)N1CCN(c2ccccc2OC)CC1 | 6.51 µM [rising, single point] | 46 | 18.4 µM [rising, single point]
Cc1csc2ncnc(N3CCN(S(=O)(=O)c4cccc(C(F)(F)F)c4)CC3)c12 | – | -35.6 | 18.4 µM [falling, single point]
CC(=O)c1cccc(NC(=O)N2CCC(NC(=O)C3CCCCC3)CC2)c1 | 29.1 µM [falling, single point] | 12.2 | –
O=C(CCSc1ccc(F)cc1)NNC(=O)c1ccc([N+](=O)[O-])cc1 | 18.4 µM [rising, partial curve] | 7.63 | –
O=S(=O)(CCc1nc2ccccc2[nH]1)c1ccc(Br)cc1 | 20.6 µM [rising, single point] | 15.1 | –
COc1cc2c(cc1OC)C1O[C@](CCCCN3C(=O)c4ccccc4C3=O)(C2)OC2=C1C(=O)CC(C)(C)C2 | – | 0.764 | –
COc1cc(Cl)ccc1OCc1cc(C(=O)NCC(C)(C)N2CCOCC2)no1 | 32.6 µM [falling, single point] | 1.59 | –
N#CCCn1cc(/C=N/N=C2\NC(=O)C(CC(=O)O)S2)c(-c2ccc(F)cc2)n1 (stereo unspecified) | 1.03 µM [falling, full curve] | -4.42 | –

Compound | AC50 [1] | cell number change [%] | AC50 [2]
O=C(Nc1ccc(F)cc1)NC1CCN(Cc2ccccc2)CC1 | 1.16 µM [falling, single point] | – | 0.00461 µM [falling, full curve, poor fit]
COCCCNC(=O)CSc1nc2cc(C(=O)NCCOC)ccc2c(=O)n1Cc1ccc2c(c1)OCO2 | – | -19.8 | –
N#CNC(=Nc1cccc(F)c1)SCc1ccccc1F | 0.231 µM [falling, full curve, poor fit] | 1.83 | –
O=C(COC(=O)/C=C/c1ccc(C(F)(F)F)cc1)Nc1ccc2[nH]c(=O)[nH]c2c1 | – | -18.4 | –
COc1cccc(N(CC(=O)NC2CCCCC2)C(=O)Cn2nnc(-c3ccc(C)o3)n2)c1 | 29.1 µM [rising, single point] | 36.3 | 10.3 µM [rising, partial curve, poor fit]
Cc1ccc(Oc2cc(NN3CCCCC3)c([N+](=O)[O-])cc2[N+](=O)[O-])c(Cl)c1 | 6.51 µM [rising, partial curve, poor fit] | 20.4 | –
CN(CC1COc2ccccc2O1)C(=O)c1cccc(S(=O)(=O)N2CCCC2)c1 (stereo unspecified) | 29.1 µM [falling, single point] | -9.52 | –
COc1cccc(OCC(O)CNC(=O)c2oc3c(C)c(C)ccc3c2C)c1 (stereo unspecified) | 16.4 µM [rising, partial curve] | -13.5 | –
CC1(OC(=O)C2CCCC2)C(=O)C=C2C=C(c3ccsc3)N(Cc3ccc4c(c3)OCO4)C=C2C1=O (stereo unspecified) | 10.3 µM [falling, partial curve] | -34.7 | 8.2 µM [falling, partial curve]
CCN(Cc1ccccc1)C(c1cc2ccc(C)cc2[nH]c1=O)c1nnnn1CCOC (stereo unspecified) | 29.1 µM [falling, single point] | 13.5 | –
CCOC(=O)c1sc2c(c1C)C(c1cccs1)C1=C(CCCC1=O)N2 (stereo unspecified) | 32.6 µM [falling, single point] | -27.9 | –
CC1(C)CC(=O)C=C(c2cccc3c2sc2ccccc23)C1 | 0.0517 µM [rising, full curve, poor fit] | -8.9 | –
Cc1ccc2[nH]cc(C(=O)CN3CCOCC3)c2c1 | 2.59 µM [rising, partial curve] | 23.3 | 0.116 µM [rising, full curve, poor fit]
COc1ccc(N(C)S(=O)(=O)c2cccc(C(=O)OC(C(=O)Nc3cc(C)cc(C)c3)c3ccccc3)c2)cc1 (stereo unspecified) | 0.58 µM [falling, single point] | – | –
C=CCn1c(SCC(=O)c2c(N)n(C)c(=O)n(C)c2=O)nc2sc(C)c(C)c2c1=O | – | 124 | 4.11 µM [falling, single point]
COc1ccc(NC(=O)Cn2c(-c3ccccc3)cn(-c3ccc(C)cc3)c2=O)cc1 | 16.4 µM [rising, partial curve] | 1.85 | 6.51 µM [rising, single point]
Cc1nc(NC(=O)CSc2nc(N)cc(N)n2)sc1C | 29.1 µM [rising, partial curve] | 10.9 | –
COCCN(CCOC)C(=O)Nc1ccc(Cl)cc1 | 0.651 µM [rising, partial curve, poor fit] | – | –
CC(NC(=O)C1CCC1)c1ccc(Cl)cc1 (stereo unspecified) | 0.13 µM [falling, full curve, poor fit] | -62.4 | 0.00731 µM [falling, full curve, poor fit]
Cc1ccc(NC(=O)CNc2cccc(S(=O)(=O)N3CCCCC3)c2)cc1F | 20.6 µM [falling, single point] | – | –

Grouped by structure: the compounds so far containing an aryl methoxy group
Compound | AC50 [1] | cell number change [%] | AC50 [2]
COc1ccccc1N(C)S(=O)(=O)c1ccc(C(=O)Nc2nc(C)cs2)cc1 | 29.1 µM [falling, single point] | -62.1 | 29.1 µM [falling, single point]
COc1ccccc1OCC(=O)N1CCN(c2ccccc2OC)CC1 | 6.51 µM [rising, single point] | 46 | 18.4 µM [rising, single point]
COc1cc2c(cc1OC)C1O[C@](CCCCN3C(=O)c4ccccc4C3=O)(C2)OC2=C1C(=O)CC(C)(C)C2 | – | 0.764 | –
COc1cc(Cl)ccc1OCc1cc(C(=O)NCC(C)(C)N2CCOCC2)no1 | 32.6 µM [falling, single point] | 1.59 | –
COc1cccc(N(CC(=O)NC2CCCCC2)C(=O)Cn2nnc(-c3ccc(C)o3)n2)c1 | 29.1 µM [rising, single point] | 36.3 | 10.3 µM [rising, partial curve, poor fit]
COc1cccc(OCC(O)CNC(=O)c2oc3c(C)c(C)ccc3c2C)c1 (stereo unspecified) | 16.4 µM [rising, partial curve] | -13.5 | –
COc1ccc(N(C)S(=O)(=O)c2cccc(C(=O)OC(C(=O)Nc3cc(C)cc(C)c3)c3ccccc3)c2)cc1 (stereo unspecified) | 0.58 µM [falling, single point] | – | –
COc1ccc(NC(=O)Cn2c(-c3ccccc3)cn(-c3ccc(C)cc3)c2=O)cc1 | 16.4 µM [rising, partial curve] | 1.85 | 6.51 µM [rising, single point]

The list continues:

Compound | AC50 [1] | cell number change [%] | AC50 [2]
COC(=O)c1c(-c2ccccc2)c(-c2ccccc2)nn(C)c1=O | 16.4 µM [rising, partial curve] | -23 | –
CN1CCC(=NNc2ncnc3sc4c(c23)CCCC4)CC1 | 6.51 µM [falling, single point] | 19.5 | –
CC(Cc1ccco1)NC(=O)c1ccc(C(F)(F)F)cc1 (stereo unspecified) | 29.1 µM [rising, single point] | -7.94 | –
Cc1[nH]n(-c2ccccc2)c(=O)c1/C=N/Nc1nncc(-c2ccccc2)n1 | 0.411 µM [rising, full curve] | 4.51 | 0.259 µM [rising, full curve, poor fit]
CC(C)[C@H](NC(=O)Nc1ccc(Oc2ccccc2)cc1)C(=O)O | – | -6.62 | –
Nn1cnnc1SCC(=O)Nc1ccc2c(c1)OCCO2 | – | -177 | 29.1 µM [falling, partial curve]
CCOC(=O)c1cc2c(ccn2C)n1Cc1ccc(C#N)cc1 | 1.64 µM [rising, partial curve, poor fit] | 20.9 | –
CCC(C)(C)NC(=O)C(c1ccccn1)N(C(=O)c1csnn1)C1CCCCC1 (stereo unspecified) | 29.1 µM [falling, single point] | -12.5 | –
CC1CC(C)CN(C(=O)c2cc(-c3ccccn3)nc3ccccc23)C1 (stereo unspecified) | 20.6 µM [falling, single point] | -39.4 | 25.9 µM [falling, single point]
CC(C)CC(COCc1ccc([N+](=O)[O-])cc1)N1CCN(C(=O)c2ccc(C(F)(F)F)cc2)CCC1=O (stereo unspecified) | 0.184 µM [falling, full curve, poor fit] | -25.8 | –
O=C(Nc1nnc(-c2ccco2)s1)C1CCCCC1 | 32.6 µM [falling, partial curve, poor fit] | – | –
N/C(=N\OC(=O)C1CCCCC1)c1ccc(Cl)cc1 | 29.1 µM [rising, single point] | 15.3 | –
Cc1cccc(CSCc2ccc(C(=O)NC(C)C)o2)c1 | 0.092 µM [rising, full curve, poor fit] | – | –
CN(C)S(=O)(=O)c1cccc(C(=O)NCc2cccs2)c1 | 29.1 µM [rising, single point] | 42.4 | –
COc1cc(OC)c(OC)cc1CNC(=O)CCN1C(=O)c2cccc([N+](=O)[O-])c2C1=O | – | 8.4 | –
Cc1cccc(Cn2cnc3c(sc4nc(C)cc(C)c43)c2=O)c1 | – | -5.56 | –
C/C(=N\Nc1ccccc1C(=O)O)c1ccncc1 | – | 21.8 | –
CCOC(=O)Cc1c(C)nc2c(-c3cccc(Br)c3)c[nH]n2c1=O | 29.1 µM [falling, single point] | -5.75 | –
COCCCN1C(=O)C(O)=C(C(=O)c2ccco2)C1c1ccccc1 (stereo unspecified) | 0.13 µM [falling, full curve, poor fit] | – | –

3 structures from above, ordered by length of the SMILES, rising:
Compound | AC50 [1] | cell number change [%] | AC50 [2]
CCOC(=O)c1cc2c(ccn2C)n1Cc1ccc(C#N)cc1 | 1.64 µM [rising, partial curve, poor fit] | 20.9 | –
Cc1cccc(Cn2cnc3c(sc4nc(C)cc(C)c43)c2=O)c1 | – | -5.56 | –
CC1CC(C)CN(C(=O)c2cc(-c3ccccn3)nc3ccccc23)C1 (stereo unspecified) | 20.6 µM [falling, single point] | -39.4 | 25.9 µM [falling, single point]
